Paper PMC3581772

Target: T1, native α2-macroglobulin (human) (UniProt P01023)
T1 sequence: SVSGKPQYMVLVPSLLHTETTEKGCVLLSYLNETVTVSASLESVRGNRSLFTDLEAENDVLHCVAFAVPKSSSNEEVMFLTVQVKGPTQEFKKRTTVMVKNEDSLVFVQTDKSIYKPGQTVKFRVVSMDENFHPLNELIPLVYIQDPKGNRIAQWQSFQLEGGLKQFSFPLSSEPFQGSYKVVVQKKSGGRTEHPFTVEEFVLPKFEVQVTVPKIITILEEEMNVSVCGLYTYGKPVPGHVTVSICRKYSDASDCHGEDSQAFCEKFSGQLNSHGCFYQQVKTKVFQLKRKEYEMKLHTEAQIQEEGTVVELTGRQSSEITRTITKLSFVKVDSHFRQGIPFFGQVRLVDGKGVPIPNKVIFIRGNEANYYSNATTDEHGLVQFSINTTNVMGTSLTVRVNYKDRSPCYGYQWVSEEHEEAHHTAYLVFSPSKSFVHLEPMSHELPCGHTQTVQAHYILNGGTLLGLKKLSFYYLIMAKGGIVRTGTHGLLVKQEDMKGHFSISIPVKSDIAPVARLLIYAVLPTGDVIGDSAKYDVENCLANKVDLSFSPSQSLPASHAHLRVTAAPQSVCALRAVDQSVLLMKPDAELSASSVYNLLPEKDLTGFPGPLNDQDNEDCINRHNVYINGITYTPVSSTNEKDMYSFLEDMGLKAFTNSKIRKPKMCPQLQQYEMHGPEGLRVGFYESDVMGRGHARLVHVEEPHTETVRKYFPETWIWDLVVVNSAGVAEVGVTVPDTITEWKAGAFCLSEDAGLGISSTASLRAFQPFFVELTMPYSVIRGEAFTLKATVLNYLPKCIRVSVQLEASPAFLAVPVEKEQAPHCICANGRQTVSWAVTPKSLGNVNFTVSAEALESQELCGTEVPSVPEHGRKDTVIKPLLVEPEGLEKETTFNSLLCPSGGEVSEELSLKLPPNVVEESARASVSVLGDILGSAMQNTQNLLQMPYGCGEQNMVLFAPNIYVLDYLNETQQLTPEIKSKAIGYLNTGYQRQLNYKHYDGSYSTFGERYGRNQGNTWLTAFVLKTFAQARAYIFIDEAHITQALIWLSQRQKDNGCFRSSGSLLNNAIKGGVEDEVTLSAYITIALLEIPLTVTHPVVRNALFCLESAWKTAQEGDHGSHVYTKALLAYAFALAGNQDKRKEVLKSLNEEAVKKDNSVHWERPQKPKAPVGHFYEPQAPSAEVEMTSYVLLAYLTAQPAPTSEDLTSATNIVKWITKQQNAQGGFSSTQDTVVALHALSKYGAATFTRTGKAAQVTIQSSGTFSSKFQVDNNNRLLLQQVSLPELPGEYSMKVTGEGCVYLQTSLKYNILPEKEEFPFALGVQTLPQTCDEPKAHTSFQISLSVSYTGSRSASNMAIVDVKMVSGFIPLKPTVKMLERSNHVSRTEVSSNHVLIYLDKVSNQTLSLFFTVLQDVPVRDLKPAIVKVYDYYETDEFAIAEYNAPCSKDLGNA
Assay: native gel or EMSA; α2M with a threefold molar excess of bovine trypsin, PBS pH 7.4, 25 °C; activation assessed on 3–8% Tris–acetate native gels; unreacted trypsin removed by SEC; both purified

- binding: binds
Substance: bovine trypsin (enzyme)

No constants are given. Whether binding was seen depends on the method and setting. Binding calls can cover weak binding; strength is not graded here.
